# PubChem BioAssay AID1259308, NCATS | 2017
# Screen: 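Knock-downs that increase output of a recombinant reporter protein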 (primary screen)
# System: human HEK293 embryonic kidney cells stably expressing firefly luciferase (HEK-CMV-Luc2-Hygro)
# Reagent: single siRNA against human genes, 0.8 pmol siRNA per well
# Time to read-out: 72 h
# Detection: 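Reporter luminescence and viable-cell signal on separate replicate plates, given as percent of non-targeting control and median/MAD z-scores, plus per-cell luciferase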
# Scale: total luciferase, z-score and total luciferase, % of control: higher = more reporter protein produced; luciferase per cell, z-score: higher = more reporter output per viable cell; viable cells, % of control: higher = more viable cells
# Hit rule: 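An siRNA counts as active if its total luciferase robust z-score exceeds 3; genes with two or more such siRNAs out of three were retested with fresh siRNAs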
# Meaning of the calls: active = raised luciferase; inactive = no rise
# Here is an unselected part of about 59,000 reagents tested. Over the whole deposit, about 1,510 (2.6%) were called active. 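Calls use total luciferase alone and ignore viability, so some active siRNAs may act by altering cell number.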 Reagents against one gene are numbered here.
gene knocked down,siRNA no.,"total luciferase, z-score","total luciferase, % of control","luciferase per cell, z-score","viable cells, % of control",Outcome
LOC728805 (retired record),1,-0.212,77.7,-0.784,107,inactive
LOC728805 (retired record),2,3.43,150,2.65,83.4,active
LOC728805 (retired record),3,-1.51,51.9,-1.64,89.3,inactive
EPB41L3,1,-0.352,74.9,-0.745,102,inactive
EPB41L3,2,0.168,85.2,0.552,82.4,inactive
EPB41L3,3,2.18,125,3.01,63.3,inactive
WNT9B,1,-2.76,27,-2.11,52.6,inactive
WNT9B,2,-0.555,70.8,0.0692,77.7,inactive
WNT9B,3,-0.117,79.6,-0.38,98.3,inactive
INKA2,1,-1.85,45.1,-1.8,80.9,inactive
INKA2,2,-0.227,77.4,-0.718,104,inactive
INKA2,3,0.0939,83.8,0.673,78.4,inactive
CRISP2,1,0.501,91.8,0.153,98.6,inactive
CRISP2,2,1.2,106,2.36,63.4,inactive
CRISP2,3,-2.58,30.6,-2.4,64.4,inactive
ZNF266,1,-0.145,79,-0.178,92.5,inactive
ZNF266,2,0.178,85.4,-0.233,101,inactive
ZNF266,3,-1.26,56.8,-1.82,103,inactive
SLC44A3,1,1.17,105,1.59,77.3,inactive
SLC44A3,2,-0.0705,80.5,-0.45,101,inactive
SLC44A3,3,0.112,84.1,-0.409,105,inactive
TUBAL3,1,-0.137,79.2,0.172,84.5,inactive
TUBAL3,2,0.859,99,0.157,106,inactive
TUBAL3,3,2.4,130,1.41,100,inactive
CYP4F8,1,-0.554,70.9,-0.91,101,inactive
CYP4F8,2,0.533,92.5,0.718,85.5,inactive
CYP4F8,3,0.34,88.7,-0.508,113,inactive
CBL,1,0.172,85.3,-0.197,100,inactive
CBL,2,-1.35,55.1,-1.32,87.3,inactive
CBL,3,-0.746,67.1,-0.21,79.2,inactive
LINC03042,1,1.58,113,1.92,76.5,inactive
LINC03042,2,1.6,114,1.65,82.2,inactive
LINC03042,3,1.65,115,2.84,60.7,inactive
CCDC9,1,2.12,124,1.67,89.2,inactive
CCDC9,2,-0.283,76.2,-0.703,103,inactive
CCDC9,3,-0.286,76.2,0.0292,84.5,inactive
LDOC1,1,-0.571,70.5,-0.598,92.3,inactive
LDOC1,2,-1.83,45.6,-1.74,80.4,inactive
LDOC1,3,0.951,101,0.746,92.5,inactive
CDKN2C,1,-1.77,46.7,-2.16,92.2,inactive
CDKN2C,2,-0.0737,80.4,-0.298,97.2,inactive
CDKN2C,3,-0.76,66.8,2.13,42.5,inactive

The list goes on, starting with the last 4 of the part before.
gene knocked down,siRNA no.,"total luciferase, z-score","total luciferase, % of control","luciferase per cell, z-score","viable cells, % of control",Outcome
LDOC1,3,0.951,101,0.746,92.5,inactive
CDKN2C,1,-1.77,46.7,-2.16,92.2,inactive
CDKN2C,2,-0.0737,80.4,-0.298,97.2,inactive
CDKN2C,3,-0.76,66.8,2.13,42.5,inactive
HMGB1P22,1,0.214,86.1,-0.146,100,inactive
HMGB1P22,2,-0.0818,80.3,0.455,79.6,inactive
HMGB1P22,3,-1.65,49.1,-1.72,86.4,inactive
UNC13D,1,-1.1,60,-0.238,71.4,inactive
UNC13D,2,-1.09,60.1,-0.426,75.2,inactive
UNC13D,3,0.024,82.4,0.376,83.4,inactive
EPB41,1,2.8,138,2.94,70.8,inactive
EPB41,2,-0.0613,80.7,0.138,86.9,inactive
EPB41,3,-1.67,48.7,-2.21,97.3,inactive
CASP8,1,-0.404,73.9,-0.577,96.1,inactive
CASP8,2,0.627,94.3,0.0653,104,inactive
CASP8,3,3.37,149,1.78,104,active
CXCR3,1,-0.129,79.3,0.043,87.6,inactive
CXCR3,2,-0.524,71.5,-0.337,87.3,inactive
CXCR3,3,-1.37,54.7,-1.54,91.8,inactive
GPX8,1,-2.22,37.8,-2.36,78.6,inactive
GPX8,2,1.12,104,1.2,84.8,inactive
GPX8,3,-1.66,48.9,-2.61,108,inactive
TMEM91,1,0.461,91.1,0.522,88.7,inactive
TMEM91,2,-0.0809,80.3,-0.478,102,inactive
TMEM91,3,1.12,104,1.34,81.7,inactive
RPUSD4,1,1.66,115,1.72,81.6,inactive
RPUSD4,2,-0.376,74.4,-0.0518,84.3,inactive
RPUSD4,3,-0.0869,80.2,-0.0689,91.2,inactive
PHF13,1,1.8,118,1.95,78.7,inactive
PHF13,2,-0.534,71.3,-0.541,91.8,inactive
PHF13,3,0.254,86.9,0.379,87.9,inactive
FPR2,1,0.0112,82.1,-0.294,99.1,inactive
FPR2,2,-0.357,74.8,-1.16,113,inactive
FPR2,3,1.31,108,0.329,111,inactive
SLC17A1,1,-0.926,63.5,-0.719,85.7,inactive
SLC17A1,2,-0.529,71.4,-1.36,114,inactive
SLC17A1,3,0.712,96.1,-0.4,119,inactive
